{"source": "the supplement of paper PMC3334620", "note": "Over roughly 33,000 sequences, “E-score (-0.5 to 0.5)” has its median near -8e-05; the highest 2% begin near 0.23. Some of the results follow."}
{"biological_target": "T1, Nrg2 (UniProt P38082)", "T1 sequence": "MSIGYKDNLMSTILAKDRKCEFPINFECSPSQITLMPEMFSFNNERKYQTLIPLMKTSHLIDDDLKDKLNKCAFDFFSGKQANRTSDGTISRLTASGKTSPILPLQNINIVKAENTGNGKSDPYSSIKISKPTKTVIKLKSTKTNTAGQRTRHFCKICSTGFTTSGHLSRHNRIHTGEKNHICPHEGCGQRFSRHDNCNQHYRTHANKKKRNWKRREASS", "assay": "PBM E-score (8-mer binding enrichment) (E-score (-0.5 to 0.5)); higher = stronger / more preferred TF binding", "settings": "protein concentration: 100 nM; construct: GST-full length", "how_it_was_run": "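For each ungapped eight-base word taken together with its reverse complement, the Universal PBM Analysis Suite assigned an E-score. Binding data came from GST-tagged yeast transcription factors, applied at about 100-200 nM, on universal all-10-mer Agilent arrays made double-stranded by primer extension. Fluorescent anti-GST marked bound protein, and scans were normalised with masliner.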"}
{"sequence": "AATCGCAG", "PBM E-score": 0.16}
{"sequence": "ACTATTAA", "PBM E-score": 0.175}
{"sequence": "AGAAATGC", "PBM E-score": 0.0286}
{"sequence": "CGAGGAAC", "PBM E-score": 0.269}
{"sequence": "ATTCTGGA", "PBM E-score": 0.00838}
{"sequence": "AAGCAGCA", "PBM E-score": -0.124}
{"sequence": "ATTAGTCA", "PBM E-score": 0.0975}
{"sequence": "GGCCATTA", "PBM E-score": 0.124}
{"sequence": "CAGTTGGC", "PBM E-score": -0.0547}
{"sequence": "ACGCGATA", "PBM E-score": 0.0412}
{"sequence": "CACATACG", "PBM E-score": -0.18}
{"sequence": "CGTGTACC", "PBM E-score": -0.031}
{"sequence": "AGGCTAAA", "PBM E-score": -0.0993}
{"sequence": "CACCGTTA", "PBM E-score": -0.0565}
{"sequence": "GGCGACAC", "PBM E-score": -0.175}
{"sequence": "CGTCTCGA", "PBM E-score": 0.043}
{"sequence": "AATGATTA", "PBM E-score": 0.159}
{"sequence": "AAGGATCC", "PBM E-score": -0.0151}
{"sequence": "AAATATTG", "PBM E-score": 0.204}
{"sequence": "GTCTATGA", "PBM E-score": 0.066}
{"sequence": "CCGGCAAG", "PBM E-score": 0.0731}
{"sequence": "AGTTCATC", "PBM E-score": 0.055}
{"sequence": "GGCGGGTA", "PBM E-score": -0.206}
{"sequence": "AAGGATGT", "PBM E-score": 0.0432}
{"sequence": "CAAAACAA", "PBM E-score": 0.0137}
{"sequence": "GACATTCC", "PBM E-score": -0.113}
{"sequence": "CACTCATG", "PBM E-score": 0.0199}
{"sequence": "CTTGCACC", "PBM E-score": 0.165}
{"sequence": "ACGCACAG", "PBM E-score": 0.186}
{"sequence": "CCGCCCAC", "PBM E-score": 0.015}
{"sequence": "AGGCGCTA", "PBM E-score": -0.109}
{"sequence": "CGAGGATC", "PBM E-score": 0.0125}
{"sequence": "AAGGGCTA", "PBM E-score": -0.119}
{"sequence": "CCTGGGAG", "PBM E-score": -0.0975}
{"sequence": "GGGTGACC", "PBM E-score": -0.0516}
{"sequence": "AACTATAC", "PBM E-score": -0.0662}
{"sequence": "AACGTTAC", "PBM E-score": -0.0437}
{"sequence": "GAAGATCA", "PBM E-score": -0.073}
{"sequence": "GCGATGCA", "PBM E-score": -0.185}
{"sequence": "ACCAAACC", "PBM E-score": 0.143}
{"sequence": "GTCGCGAA", "PBM E-score": 0.125}
{"sequence": "ACCGACAT", "PBM E-score": 0.123}
{"sequence": "CGAACAGA", "PBM E-score": -0.00674}
{"sequence": "AAGATCAC", "PBM E-score": 0.0656}
{"sequence": "GCCAGGTA", "PBM E-score": -0.0513}
{"sequence": "CCAGGCTC", "PBM E-score": -0.0756}
{"sequence": "TATCCGAA", "PBM E-score": -0.0137}
{"sequence": "GAGAGCCA", "PBM E-score": -0.0221}
{"sequence": "CCGGGTTC", "PBM E-score": 0.139}
{"sequence": "GCTTACGA", "PBM E-score": -0.197}
{"sequence": "ATTCTAAC", "PBM E-score": -0.0365}
{"sequence": "GTAATAGA", "PBM E-score": 0.0231}
{"sequence": "CGTCTCAA", "PBM E-score": 0.0469}
{"sequence": "AAAGAAAA", "PBM E-score": 0.112}
{"sequence": "CCCCTTAC", "PBM E-score": 0.0255}
{"sequence": "AGTATACG", "PBM E-score": 0.0367}
{"sequence": "AATTTACA", "PBM E-score": -0.0448}
{"sequence": "ATAACATC", "PBM E-score": 0.104}
{"sequence": "CAATAGCA", "PBM E-score": -0.102}
{"sequence": "ACTACGCC", "PBM E-score": -0.0991}
{"sequence": "ATGGTATA", "PBM E-score": 0.0282}
{"sequence": "GGAAAGAA", "PBM E-score": 0.0994}
{"sequence": "ACTGGGTC", "PBM E-score": -0.168}
{"sequence": "TGGCGCCA", "PBM E-score": 0.123}
{"sequence": "CCTGGGAC", "PBM E-score": -0.165}
{"sequence": "CGGGGTCA", "PBM E-score": -0.0228}
{"sequence": "TGCGCCAA", "PBM E-score": 0.0379}
{"sequence": "AACCTCTG", "PBM E-score": -0.127}
{"sequence": "AACAAGTA", "PBM E-score": -0.0255}
{"sequence": "CCCTCCCA", "PBM E-score": 0.127}
{"sequence": "CTTTCTTA", "PBM E-score": 0.0208}
{"sequence": "AAGATCCA", "PBM E-score": 0.0354}
{"sequence": "GTTCAATA", "PBM E-score": -0.00563}
{"sequence": "CTTCCGGA", "PBM E-score": -0.204}
{"sequence": "GCGTAATA", "PBM E-score": 0.0559}
{"sequence": "GACTCGGC", "PBM E-score": -0.235}
{"sequence": "AGTACGCG", "PBM E-score": 0.191}
{"sequence": "GAATAGTC", "PBM E-score": 0.0561}
{"sequence": "TATCCCCA", "PBM E-score": 0.186}
{"sequence": "ATAGCTCC", "PBM E-score": -0.175}
{"sequence": "CAAAAGTC", "PBM E-score": -0.106}
{"sequence": "CACTCCAA", "PBM E-score": -0.0828}
{"sequence": "ATGGGAAA", "PBM E-score": -0.133}
{"sequence": "GTGTCTTA", "PBM E-score": -0.0401}
{"sequence": "ACCATAGT", "PBM E-score": -0.116}
{"sequence": "GCTATACA", "PBM E-score": -0.0994}
{"sequence": "CGCCATCC", "PBM E-score": -0.135}
{"sequence": "GTAAACAA", "PBM E-score": 0.121}
{"sequence": "ATGTTGAA", "PBM E-score": 0.153}
{"sequence": "AGTTTCAA", "PBM E-score": 0.013}
{"sequence": "CTCAATGC", "PBM E-score": -0.129}
{"sequence": "AACGATGC", "PBM E-score": -0.193}
{"sequence": "AAACGAGT", "PBM E-score": 0.172}
{"sequence": "AGCTCCTC", "PBM E-score": -0.254}
{"sequence": "CCGTGCCC", "PBM E-score": -0.247}
{"sequence": "CATGAGGA", "PBM E-score": 0.00092}
{"sequence": "CCCCACGA", "PBM E-score": 0.0753}
{"sequence": "GACATTAA", "PBM E-score": 0.0858}
{"sequence": "TCCACGAA", "PBM E-score": 0.151}
{"sequence": "TACAGCTA", "PBM E-score": -0.103}
{"sequence": "CGACTTGC", "PBM E-score": -0.038}
{"sequence": "ACGCAAAT", "PBM E-score": 0.0425}
{"sequence": "GTGAGGAA", "PBM E-score": -0.0482}
{"sequence": "ACAATGAT", "PBM E-score": 0.0575}
{"sequence": "CGTGAAAC", "PBM E-score": -0.0624}
{"sequence": "TCGGGCAA", "PBM E-score": 0.115}
{"sequence": "GTTGCGAA", "PBM E-score": 0.0679}
{"sequence": "GTCGGTAA", "PBM E-score": -0.0786}
{"sequence": "AGACAGCG", "PBM E-score": -0.0227}
{"sequence": "CGCACGGC", "PBM E-score": 0.0495}
{"sequence": "ATATAAAC", "PBM E-score": 0.255}
{"sequence": "GGGTTTAA", "PBM E-score": 0.0664}
{"sequence": "AGTCGGCC", "PBM E-score": -0.086}
{"sequence": "CTTACCAC", "PBM E-score": -0.0769}
{"sequence": "AATAACCA", "PBM E-score": 0.147}
{"sequence": "AATACAAC", "PBM E-score": 0.185}
{"sequence": "GAGGAATC", "PBM E-score": -0.133}
{"sequence": "ATGATTAC", "PBM E-score": 0.0117}
{"sequence": "AAATAAAA", "PBM E-score": 0.0565}
{"sequence": "AGCCAGTA", "PBM E-score": 0.0109}
{"sequence": "ACATTCAG", "PBM E-score": -0.104}
{"sequence": "TAGATATA", "PBM E-score": 0.153}
{"sequence": "CTTATCAC", "PBM E-score": -0.0199}
{"sequence": "GGATGCGA", "PBM E-score": -0.0571}
{"sequence": "ATTCCATC", "PBM E-score": 0.164}
{"sequence": "ACCCTATA", "PBM E-score": 0.114}
{"sequence": "AGGAAACT", "PBM E-score": 0.0285}
{"sequence": "AAAGATAA", "PBM E-score": 0.112}
{"sequence": "CGGGCGGA", "PBM E-score": 0.0877}
{"sequence": "GGCCTTAC", "PBM E-score": -0.132}
{"sequence": "CAGGACCG", "PBM E-score": -0.152}
{"sequence": "CGGGCTCC", "PBM E-score": -0.312}
{"sequence": "AAATGATC", "PBM E-score": -0.05}
{"sequence": "CTACAGGA", "PBM E-score": -0.0925}
{"sequence": "ATGCTTCG", "PBM E-score": -0.00542}
{"sequence": "CGTGTGTC", "PBM E-score": -0.125}
{"sequence": "ACGTTTAG", "PBM E-score": -0.0776}
{"sequence": "GCCAATTA", "PBM E-score": 0.0951}
{"sequence": "ACAGGATC", "PBM E-score": -0.0733}
{"sequence": "CTCACGTC", "PBM E-score": -0.0243}
{"sequence": "AAAATATG", "PBM E-score": 0.164}
{"sequence": "GAAACGAA", "PBM E-score": 0.166}
{"sequence": "CGGGACTA", "PBM E-score": -0.0447}
{"sequence": "GAAGTGAC", "PBM E-score": -0.156}
{"sequence": "CCACATGA", "PBM E-score": -0.00123}
{"sequence": "CCCAATTA", "PBM E-score": 0.0564}
{"sequence": "CGAAGGGC", "PBM E-score": 0.0773}
{"sequence": "CGACCTCG", "PBM E-score": 0.134}
{"sequence": "ACAATAAT", "PBM E-score": 0.161}
{"sequence": "CACTCCTG", "PBM E-score": -0.0552}
{"sequence": "ACTGAAGC", "PBM E-score": -0.00321}
{"sequence": "TCACGAGA", "PBM E-score": -0.186}
{"sequence": "GCACCAGA", "PBM E-score": -0.0883}
{"sequence": "CCGCTTTC", "PBM E-score": -0.169}
{"sequence": "AGCCGCAA", "PBM E-score": -0.0078}
{"sequence": "GGGCTTCA", "PBM E-score": -0.103}
{"sequence": "CAAACGCG", "PBM E-score": 0.0917}
{"sequence": "ATAGTCAG", "PBM E-score": 0.0324}
{"sequence": "AACGCGAC", "PBM E-score": 0.0416}
{"sequence": "ATTACCTC", "PBM E-score": 0.0644}
{"sequence": "AATTAACG", "PBM E-score": 0.0221}
{"sequence": "GCGTTAGA", "PBM E-score": 0.0176}
{"sequence": "ATGCAAAG", "PBM E-score": 0.0187}
{"sequence": "AATGCACT", "PBM E-score": 0.121}
{"sequence": "CCATTGTA", "PBM E-score": 0.0274}
{"sequence": "TACAAGCA", "PBM E-score": 0.121}
{"sequence": "TGCCGACA", "PBM E-score": 0.165}
{"sequence": "CCCGAAAC", "PBM E-score": 0.0403}
{"sequence": "ACGTATAT", "PBM E-score": 0.0241}
{"sequence": "ATCTGGTC", "PBM E-score": 0.0416}
{"sequence": "GACAAACA", "PBM E-score": 0.089}
{"sequence": "TGATGCAA", "PBM E-score": 0.0294}
